Test results taken from the supplement of paper PMC8616043.
Structures can show the parent of a compound that is named as a salt. Some of the results follow. Repeats in this data set agree poorly, so a single value says little.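 The cells are human U-2 OS cells that stably carry a GFP sensor with a nuclear import signal and a classical export signal. They were transfected to make PR50, a 50-repeat proline–arginine dipeptide protein from the ALS/FTD gene C9ORF72. Each well's nuclear-minus-cytoplasm GFP signal was scaled from in-plate DMSO (low) to PR-only wells (high), then scored against the other test wells on the plate; compounds scoring well below zero were called hits that reverse the PR effect.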

These molecules were tested on U-2 OS NCT-C biosensor cells expressing PR50 (assay: Z-score of normalised NCT-C biosensor translocation index in PR50-expressing cells; higher = more nuclear biosensor (more disrupted nuclear export)). Conditions: 3 µM; 24 h.

Structure (SMILES)	Z-score
C[n+]1cc2c3c(ccc2c2ccc4cc5c(cc4c21)OCO5)OCO3 [Sanguinarine chloride]	inactive: -1.25
C[n+]1cc2c3c(ccc2c2ccc4cc5c(cc4c21)OCO5)OCO3 [Sanguinarine]	inactive: -0.725
Nc1ncnc2c1ncn2[C@@H]1O[C@H](CO)[C@@H](O)[C@H]1O [Adenosine]	inactive: 0.252
O=C(c1ccc(Nc2nccc(-c3cc4ccccc4s3)n2)cc1)N1CCC(N2CCCC2)CC1 [IKK-16  dihydrochloride]	inactive: 0.0162
Clc1ccc(CSC(Cn2ccnc2)c2ccc(Cl)cc2Cl)cc1 (stereo not drawn) [Sulconazole Nitrate]	inactive: -0.514
CC(=O)O[C@@]12CO[C@@H]1C[C@H](O)[C@@]1(C)C(=O)[C@H](O)C3=C(C)[C@@H](OC(=O)[C@H](O)[C@@H](NC(=O)OC(C)(C)C)c4ccccc4)C[C@@](O)([C@@H](OC(=O)c4ccccc4)[C@H]21)C3(C)C [Docetaxel (Taxotere)]	inactive: 10.6
COc1ccccc1N1CCN(CCN(C(=O)C2CCCCC2)c2ccccn2)CC1	inactive: -0.207
Nc1ccn([C@@H]2O[C@H](CO)[C@@H](O)C2(F)F)c(=O)n1 [Gemcitabine hydrochloride]	inactive: 3.47
Nc1ccn([C@@H]2O[C@H](CO)[C@@H](O)C2(F)F)c(=O)n1 [Gemcitabine·HCl]	inactive: 0.685
CO[C@H]1C[C@@H]2CC[C@@H](C)[C@@](O)(O2)C(=O)C(=O)N2CCCC[C@H]2C(=O)O[C@H]([C@H](C)C[C@@H]2CC[C@@H](OCCO)[C@H](OC)C2)CC(=O)[C@H](C)/C=C(\C)[C@@H](O)[C@@H](OC)C(=O)[C@H](C)C[C@H](C)/C=C/C=C/C=C/1C [Everolimus]	inactive: 0.0184
C=CC1=C(C)c2cc3[nH]c(cc4nc(cc5[nH]c(cc1n2)c(C)c5CCC(=O)O)C(CCC(=O)O)=C4C)c(C)c3C=C [Protoporphyrin IX]	inactive: -0.103
CC1CNc2c(cccc2S(=O)(=O)N[C@@H](CCCNC(=N)N)C(=O)N2CC[C@@H](C)C[C@@H]2C(=O)O)C1 (stereo partly drawn) [Argatroban]	inactive: 0.385
CC1CNc2c(cccc2S(=O)(=O)N[C@@H](CCCNC(=N)N)C(=O)N2CC[C@@H](C)C[C@@H]2C(=O)O)C1 (stereo partly drawn) [Argatroban monohydrate]	inactive: -0.421
C=C1C[C@@]23CC[C@H]4[C@@](C)(CCC[C@@]4(C)C(=O)O)[C@@H]2CC[C@]1(O)C3 [Steviol]	inactive: -1.03
CC12C=Cc3occc3C1CCC13CC(=O)C(CCC12)C3 (stereo not drawn) [16-Oxokahweol]	inactive: -0.61
O=C1Nc2ccccc2/C1=C1/Nc2ccccc2C1=O [Indirubin]	inactive: -0.363
N=C(N)NC(=O)Cc1c(Cl)cccc1Cl [Guanfacine·HCl]	inactive: -1.67
O=C(O)C(O)Cc1ccc(O)c(O)c1 (stereo not drawn) [Danshensu sodium salt]	inactive: -0.713
CCCCCOc1ccc(-c2cc(-c3ccc(C(=O)N[C@H]4C[C@@H](O)[C@@H](O)NC(=O)[C@@H]5[C@@H](O)[C@@H](C)CN5C(=O)[C@H]([C@H](O)CC(N)=O)NC(=O)[C@H]([C@H](O)[C@@H](O)c5ccc(O)c(OS(=O)(=O)O)c5)NC(=O)[C@@H]5C[C@@H](O)CN5C(=O)[C@H]([C@@H](C)O)NC4=O)cc3)no2)cc1 [Micafungin]	inactive: -0.63

Structure (SMILES)	Z-score
COc1cc2nc(N(C)CCCNC(=O)C3CCCO3)nc(N)c2cc1OC (stereo not drawn) [Alfuzosin hydrochloride]	inactive: 3.62
COc1cc2nc(N(C)CCCNC(=O)C3CCCO3)nc(N)c2cc1OC (stereo not drawn) [Alfuzosin]	inactive: -1.12
Clc1ccc(Cn2c(CN3CCCC3)nc3ccccc32)cc1 [Clemizole hydrochloride]	inactive: 0.279
O=C(O)/C=C/c1ccc(O)c(O)c1 [Caffeic acid]	inactive: -0.616
O=C(O)/C=C/c1ccc(O)c(O)c1 [Caffeic Acid]	inactive: 2.83
N[C@@H](Cc1c[nH]c2ccc(O)cc12)C(=O)O [5-Hydroxy-L- tryptophan]	inactive: -0.0134
OCC1OC(n2cnc3c(NC4CCCCC4)ncnc32)C(O)C1O (stereo not drawn) [N6-Cyclohexyl adenosine]	inactive: 0.0224
O=C(O)COCCN1CCN(C(c2ccccc2)c2ccc(Cl)cc2)CC1 (stereo not drawn) [Cetirizine dihydrochloride]	inactive: 0.294
O=C(O)COCCN1CCN(C(c2ccccc2)c2ccc(Cl)cc2)CC1 (stereo not drawn) [Cetirizine 2HCl]	inactive: -1.18
N[C@@H]1CONC1=O [D-Cycloserine]	inactive: -0.259
N[C@@H]1CONC1=O [Cycloserine]	inactive: -0.423
CC(=O)O[C@]1(C(C)=O)CC[C@H]2[C@@H]3C=C(Cl)C4=CC(=O)[C@@H]5C[C@@H]5[C@]4(C)[C@H]3CC[C@@]21C [Cyproterone acetate]	inactive: -0.281
Clc1ccc(CO/N=C(\Cn2ccnc2)c2ccc(Cl)cc2Cl)c(Cl)c1 [Oxiconazole nitrate]	inactive: 0.0424
Clc1ccc(CO/N=C(\Cn2ccnc2)c2ccc(Cl)cc2Cl)c(Cl)c1 [Oxiconazole Nitrate]	inactive: -0.252
CCCc1c2oc(C(=O)O)cc(=O)c2cc2c(=O)cc(C(=O)O)n(CC)c12 [Nedocromil]	inactive: -1.05
CC(C)N1CCN(S(=O)(=O)c2ccc(NC(=O)c3ccc(C(F)(F)F)cc3[N+](=O)[O-])cc2)CC1	inactive: -0.8
O=C(O)c1ccc(-c2c[nH]c3ncc(-c4ccccc4)cc23)cc1C1CCCC1	inactive: -0.211
CN1CCc2cc(Cl)c(O)cc2[C@@H](c2ccccc2)C1	inactive: 0.37
COc1cc2c3cc1Oc1cc(ccc1O)C[C@@H]1c4c(cc(OC)c(O)c4Oc4ccc(cc4)C[C@@H]3N(C)CC2)CC[N+]1(C)C [(+)-Tubocurarine chloride]	inactive: -0.458

Reformatted: results already given.

| Structure (SMILES) | Z-score |
| --- | --- |
| C=C1C[C@@]23CC[C@H]4[C@@](C)(CCC[C@@]4(C)C(=O)O)[C@@H]2CC[C@]1(O)C3 [Steviol] | inactive: -1.03 |
| CC12C=Cc3occc3C1CCC13CC(=O)C(CCC12)C3 (stereo not drawn) [16-Oxokahweol] | inactive: -0.61 |
